Assay results: patent US20170007595A1, “NSD3 INHIBITORS FOR TREATMENT OF CANCERS” (THE BRIGHAM AND WOMEN'S HOSPITAL, INC., priority 2014, published 2017)
These are yes or no findings as the source states them, for the method shown. For part of these data: In cells and extracts the contact can be indirect. Some binding calls cover weakened binding; strength is not graded here.

Protein sequences, listed by entry. Tags and fused reporters are not part of them. Lines headed by an entry give the natural chain unless they say otherwise; changes in a name come on top.
UniProt Q9BZ95: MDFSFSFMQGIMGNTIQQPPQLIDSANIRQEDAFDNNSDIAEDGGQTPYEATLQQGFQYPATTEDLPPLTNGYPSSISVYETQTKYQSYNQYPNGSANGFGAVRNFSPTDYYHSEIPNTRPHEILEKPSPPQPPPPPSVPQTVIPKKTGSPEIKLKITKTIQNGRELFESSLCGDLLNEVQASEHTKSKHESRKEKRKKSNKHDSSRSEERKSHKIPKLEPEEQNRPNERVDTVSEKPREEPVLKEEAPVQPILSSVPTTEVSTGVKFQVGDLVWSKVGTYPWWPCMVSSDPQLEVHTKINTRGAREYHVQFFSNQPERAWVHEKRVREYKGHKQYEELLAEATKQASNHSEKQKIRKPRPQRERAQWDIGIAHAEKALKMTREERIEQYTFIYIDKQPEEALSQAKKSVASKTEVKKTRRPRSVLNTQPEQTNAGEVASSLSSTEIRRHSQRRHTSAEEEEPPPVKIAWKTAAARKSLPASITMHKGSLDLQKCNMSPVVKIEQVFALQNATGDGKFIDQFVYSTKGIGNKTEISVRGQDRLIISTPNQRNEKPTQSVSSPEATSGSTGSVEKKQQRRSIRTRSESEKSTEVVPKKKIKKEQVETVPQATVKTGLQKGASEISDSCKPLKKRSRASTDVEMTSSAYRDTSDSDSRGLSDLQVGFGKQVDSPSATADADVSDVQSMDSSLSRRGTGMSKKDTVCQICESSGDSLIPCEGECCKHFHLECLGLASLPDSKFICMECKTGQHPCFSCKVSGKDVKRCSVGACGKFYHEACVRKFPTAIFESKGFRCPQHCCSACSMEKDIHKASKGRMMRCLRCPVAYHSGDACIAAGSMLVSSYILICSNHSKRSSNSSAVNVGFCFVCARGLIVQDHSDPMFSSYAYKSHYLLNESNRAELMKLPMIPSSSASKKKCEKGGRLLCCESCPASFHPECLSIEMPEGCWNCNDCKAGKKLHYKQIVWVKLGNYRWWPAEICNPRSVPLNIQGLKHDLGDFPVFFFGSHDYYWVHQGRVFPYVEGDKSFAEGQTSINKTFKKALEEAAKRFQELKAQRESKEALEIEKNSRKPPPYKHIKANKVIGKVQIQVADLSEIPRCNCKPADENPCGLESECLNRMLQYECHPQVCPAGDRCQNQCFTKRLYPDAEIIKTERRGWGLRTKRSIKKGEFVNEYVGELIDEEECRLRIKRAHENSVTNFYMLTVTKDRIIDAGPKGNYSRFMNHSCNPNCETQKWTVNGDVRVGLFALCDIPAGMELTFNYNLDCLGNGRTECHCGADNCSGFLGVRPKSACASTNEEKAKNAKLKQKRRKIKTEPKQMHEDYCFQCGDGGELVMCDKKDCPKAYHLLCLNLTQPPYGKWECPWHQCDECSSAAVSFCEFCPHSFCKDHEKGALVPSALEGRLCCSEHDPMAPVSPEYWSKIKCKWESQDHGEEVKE

What was measured:
[1] = molecular target: HA-tagged BRD4-NUT (human); assay: summary of the co-immunoprecipitation results
[2] = molecular target: BRD4-NUT (endogenous, 797TRex / TC-797 cells) (human); assay: figure legend: immunofluorescence co-localisation (FIG. 4A)
[3] = molecular target: BRD4-NUT (endogenous, 797TRex / TC-797 cells) (human); assay: immunofluorescence microscopy of 797TRex cells, anti-HA and anti-NUT

Row | Substance | binding [1] | binding [2] | binding [3]
1 | NSD3 (endogenous, wild type) (from UniProt Q9BZ95 1-1437) | binds |  | 
2 | HA-NSD3-tr (NSD3 portion of the NSD3-NUT fusion protein) (from UniProt Q9BZ95 1-569) |  | binds | binds
